Our source for the binding values is publication PMC2413403.

The assay has as its target hamster Nkx2-2 (hamster). Put plainly: co-IP; mPAC cells given AdCMV-Math6 with expression vectors for Neurog3, NeuroD1 or Nkx2-2; 500 ug lysate in coIP buffer (100 mM NaCl, 20 mM Tris-HCl pH 7.5, 1 mM EDTA, 1% Igepal CA-630, 5 mM NaF); immunoprecipitated with anti-FLAG, anti-Nkx2-2 or mouse IgG1 overnight at 4°C; protein G dynabeads; immunoblotted with anti-myc. A general note: A western blot detects proteins with antibodies after separation by electrophoresis.

These are yes or no findings as the source states them, for the method shown. In cells and extracts the contact can be indirect. Tags and fused reporters may be left off the sequences shown.

B1: Math6 (mouse atonal homolog 6) with an N-terminal c-myc tag (protein, UniProt Q99NA2 1-322)
chain: MKHIPVLEDGPWKTVCVKELNGLKKLKRKGKEPVRRANGYKTFRLDLEAPELGATVSTTAATNGLRDRTQPFPIATPVPASVAPAVPPGGGTDTAREFRGIRAPEVSDARKRGFALGTVGPGLPTPPPPPASQSLAPGDPEAHSFREQALRPRILLCAPPARPTQSAPLAPPAAPQESPVRPAPPTRPGESSYSSISHVIYNNHPDSSASPRKRPGEATAASTEIKALQQTRRLLANARERTRVHTISAAFEALRKQVPCYSYGQKLSKLAILRIACNYILSLARLADLDYSADHSNLSFSECVQRCTRTLQAEGRAKKRKE
Take B1: the binding result is listed as “no binding”.
